Source: patent US12624017B2, “Salt form of isoquinolinone type compound as rock inhibitor and preparation method therefor” (GUANGZHOU OCUSUN OPHTHALMIC BIOTECHNOLOGY CO., LTD., priority 2020, dated 2026)
Some results were stated once for a whole list of compounds, not compound by compound.

System: New Zealand rabbits with normal intraocular pressure
Assay: Fluorescein sodium detection (corneal fluorescent staining), 14 days eye drops
Assay type: in vivo, New Zealand white rabbits
Settings: during the test; 14 consecutive days, 50 μL/eye once a day

SMILES	Fluorescein sodium test scores of eyes
C[C@H]1CNCCCN1S(=O)(=O)c1cccc2cncc(F)c12 [K-115, reference compound]	less than 1
Cc1ccc(C(=O)OCn2cc(C)c3c(S(=O)(=O)N4CC[C@H](N)C4)cccc3c2=O)c(C)c1 [Compound of formula (I)]	less than 1
